In PMC5613149:
Results are given in words; binding and its absence hold for the method and conditions named. Binding seen in cells or lysates may run through a third protein.

The chains behind the UniProt entries cited, without tags or fusion partners.
UniProt P20339: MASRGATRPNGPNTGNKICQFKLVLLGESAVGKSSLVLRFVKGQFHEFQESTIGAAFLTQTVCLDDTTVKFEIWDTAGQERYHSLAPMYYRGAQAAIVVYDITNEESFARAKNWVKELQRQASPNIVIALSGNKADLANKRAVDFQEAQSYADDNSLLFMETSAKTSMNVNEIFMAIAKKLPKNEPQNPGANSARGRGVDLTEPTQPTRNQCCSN
UniProt P31387: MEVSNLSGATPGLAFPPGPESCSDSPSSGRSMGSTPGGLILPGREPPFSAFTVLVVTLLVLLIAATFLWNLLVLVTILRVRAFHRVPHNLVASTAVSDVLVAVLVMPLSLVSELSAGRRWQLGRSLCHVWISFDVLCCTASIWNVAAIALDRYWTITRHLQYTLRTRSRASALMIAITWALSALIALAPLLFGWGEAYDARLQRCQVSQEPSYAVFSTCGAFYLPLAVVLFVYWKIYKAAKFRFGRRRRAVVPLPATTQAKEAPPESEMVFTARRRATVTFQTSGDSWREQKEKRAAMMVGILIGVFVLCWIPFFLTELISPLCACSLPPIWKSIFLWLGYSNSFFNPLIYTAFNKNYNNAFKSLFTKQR

Molecular target: GFP-rab5 (UniProt P20339)
Assay: FRET or BRET; acceptor-photobleaching FRET (abFRET) microscopy; N1E-115 cells co-transfected with equimolar amounts of the two plasmids, fixed with 2% paraformaldehyde for 20 min; GFP donor, mRFP/mCherry acceptor bleached in regions of interest; apparent FRET efficiency (Fapp)

serotonin receptor subtype 5b, mCherry fusion (5-ht5b-mCherry) (from UniProt P31387 1-370)
binding: no binding
